# Experimental data reported in article PMC10500570 (ACS Omega, 2023).
# Tested on: SH-SY5Y cells
# Experiment: SRB cytotoxicity assay
# Assay type: cell-based
# Settings: Homo sapiens, 48 h, read-out: GI50 ± SD
smiles,measurement,value
"COc1cc2c(cc1OC)C(=O)C(CC1CCN(Cc3ccccc3)CC1)C2 (stereo not shown) [donepezil, reference compound]",GI50,92.7 ± 8.49 µM
